In the supplement of paper PMC10849652:
The other results are listed elsewhere or left out.

Protein sequences, listed by entry. Tags and fused reporters are not part of them. Lines headed by an entry give the natural chain unless they say otherwise; changes in a name come on top.
UniProt P62380: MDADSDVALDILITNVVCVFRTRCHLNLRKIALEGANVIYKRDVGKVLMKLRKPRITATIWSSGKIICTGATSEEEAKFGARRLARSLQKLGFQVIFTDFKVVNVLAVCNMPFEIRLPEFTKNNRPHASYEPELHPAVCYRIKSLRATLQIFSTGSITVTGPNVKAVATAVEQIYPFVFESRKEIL
UniProt O14776: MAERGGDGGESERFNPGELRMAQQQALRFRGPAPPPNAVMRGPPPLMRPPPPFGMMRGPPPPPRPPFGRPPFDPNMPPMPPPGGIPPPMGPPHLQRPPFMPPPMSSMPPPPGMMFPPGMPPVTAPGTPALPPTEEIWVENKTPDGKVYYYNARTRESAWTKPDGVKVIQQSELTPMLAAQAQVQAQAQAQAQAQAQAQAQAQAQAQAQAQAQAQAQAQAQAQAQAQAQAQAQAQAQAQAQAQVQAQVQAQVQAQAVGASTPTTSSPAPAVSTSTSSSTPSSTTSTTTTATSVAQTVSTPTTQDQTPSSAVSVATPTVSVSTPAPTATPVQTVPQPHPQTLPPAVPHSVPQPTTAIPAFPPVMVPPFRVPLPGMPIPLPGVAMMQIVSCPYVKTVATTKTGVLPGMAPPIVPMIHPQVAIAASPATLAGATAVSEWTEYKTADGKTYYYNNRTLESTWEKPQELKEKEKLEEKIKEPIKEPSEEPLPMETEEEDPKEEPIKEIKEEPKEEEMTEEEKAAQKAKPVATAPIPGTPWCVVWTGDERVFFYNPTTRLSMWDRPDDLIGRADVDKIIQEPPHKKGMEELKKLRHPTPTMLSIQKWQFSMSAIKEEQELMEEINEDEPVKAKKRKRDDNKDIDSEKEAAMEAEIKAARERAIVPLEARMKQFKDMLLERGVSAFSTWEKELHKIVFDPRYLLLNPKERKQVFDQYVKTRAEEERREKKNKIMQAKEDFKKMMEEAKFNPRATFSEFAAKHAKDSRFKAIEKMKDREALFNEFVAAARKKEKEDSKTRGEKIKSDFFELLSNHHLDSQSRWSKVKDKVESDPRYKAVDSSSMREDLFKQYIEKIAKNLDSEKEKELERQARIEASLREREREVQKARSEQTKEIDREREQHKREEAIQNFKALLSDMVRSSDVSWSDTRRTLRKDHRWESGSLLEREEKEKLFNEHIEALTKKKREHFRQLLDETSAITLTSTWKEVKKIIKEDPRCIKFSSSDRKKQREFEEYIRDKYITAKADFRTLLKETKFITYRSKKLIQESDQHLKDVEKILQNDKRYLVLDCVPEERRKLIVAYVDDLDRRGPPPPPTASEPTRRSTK
UniProt P17987, whole entry, looked up: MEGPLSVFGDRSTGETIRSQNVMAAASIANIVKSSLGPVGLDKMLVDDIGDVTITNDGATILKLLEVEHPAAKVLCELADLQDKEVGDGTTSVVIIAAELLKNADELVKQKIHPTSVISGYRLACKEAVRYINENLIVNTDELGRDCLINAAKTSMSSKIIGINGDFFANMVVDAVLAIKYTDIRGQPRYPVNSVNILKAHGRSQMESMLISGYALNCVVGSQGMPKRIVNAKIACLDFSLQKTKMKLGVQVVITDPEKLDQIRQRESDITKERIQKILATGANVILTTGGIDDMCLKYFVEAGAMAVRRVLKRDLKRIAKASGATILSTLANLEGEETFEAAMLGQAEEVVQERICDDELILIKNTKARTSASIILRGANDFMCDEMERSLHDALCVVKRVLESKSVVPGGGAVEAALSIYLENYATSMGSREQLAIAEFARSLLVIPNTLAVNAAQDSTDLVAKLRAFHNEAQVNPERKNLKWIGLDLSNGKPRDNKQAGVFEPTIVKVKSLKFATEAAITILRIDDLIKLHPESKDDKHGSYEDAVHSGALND
UniProt Q07157: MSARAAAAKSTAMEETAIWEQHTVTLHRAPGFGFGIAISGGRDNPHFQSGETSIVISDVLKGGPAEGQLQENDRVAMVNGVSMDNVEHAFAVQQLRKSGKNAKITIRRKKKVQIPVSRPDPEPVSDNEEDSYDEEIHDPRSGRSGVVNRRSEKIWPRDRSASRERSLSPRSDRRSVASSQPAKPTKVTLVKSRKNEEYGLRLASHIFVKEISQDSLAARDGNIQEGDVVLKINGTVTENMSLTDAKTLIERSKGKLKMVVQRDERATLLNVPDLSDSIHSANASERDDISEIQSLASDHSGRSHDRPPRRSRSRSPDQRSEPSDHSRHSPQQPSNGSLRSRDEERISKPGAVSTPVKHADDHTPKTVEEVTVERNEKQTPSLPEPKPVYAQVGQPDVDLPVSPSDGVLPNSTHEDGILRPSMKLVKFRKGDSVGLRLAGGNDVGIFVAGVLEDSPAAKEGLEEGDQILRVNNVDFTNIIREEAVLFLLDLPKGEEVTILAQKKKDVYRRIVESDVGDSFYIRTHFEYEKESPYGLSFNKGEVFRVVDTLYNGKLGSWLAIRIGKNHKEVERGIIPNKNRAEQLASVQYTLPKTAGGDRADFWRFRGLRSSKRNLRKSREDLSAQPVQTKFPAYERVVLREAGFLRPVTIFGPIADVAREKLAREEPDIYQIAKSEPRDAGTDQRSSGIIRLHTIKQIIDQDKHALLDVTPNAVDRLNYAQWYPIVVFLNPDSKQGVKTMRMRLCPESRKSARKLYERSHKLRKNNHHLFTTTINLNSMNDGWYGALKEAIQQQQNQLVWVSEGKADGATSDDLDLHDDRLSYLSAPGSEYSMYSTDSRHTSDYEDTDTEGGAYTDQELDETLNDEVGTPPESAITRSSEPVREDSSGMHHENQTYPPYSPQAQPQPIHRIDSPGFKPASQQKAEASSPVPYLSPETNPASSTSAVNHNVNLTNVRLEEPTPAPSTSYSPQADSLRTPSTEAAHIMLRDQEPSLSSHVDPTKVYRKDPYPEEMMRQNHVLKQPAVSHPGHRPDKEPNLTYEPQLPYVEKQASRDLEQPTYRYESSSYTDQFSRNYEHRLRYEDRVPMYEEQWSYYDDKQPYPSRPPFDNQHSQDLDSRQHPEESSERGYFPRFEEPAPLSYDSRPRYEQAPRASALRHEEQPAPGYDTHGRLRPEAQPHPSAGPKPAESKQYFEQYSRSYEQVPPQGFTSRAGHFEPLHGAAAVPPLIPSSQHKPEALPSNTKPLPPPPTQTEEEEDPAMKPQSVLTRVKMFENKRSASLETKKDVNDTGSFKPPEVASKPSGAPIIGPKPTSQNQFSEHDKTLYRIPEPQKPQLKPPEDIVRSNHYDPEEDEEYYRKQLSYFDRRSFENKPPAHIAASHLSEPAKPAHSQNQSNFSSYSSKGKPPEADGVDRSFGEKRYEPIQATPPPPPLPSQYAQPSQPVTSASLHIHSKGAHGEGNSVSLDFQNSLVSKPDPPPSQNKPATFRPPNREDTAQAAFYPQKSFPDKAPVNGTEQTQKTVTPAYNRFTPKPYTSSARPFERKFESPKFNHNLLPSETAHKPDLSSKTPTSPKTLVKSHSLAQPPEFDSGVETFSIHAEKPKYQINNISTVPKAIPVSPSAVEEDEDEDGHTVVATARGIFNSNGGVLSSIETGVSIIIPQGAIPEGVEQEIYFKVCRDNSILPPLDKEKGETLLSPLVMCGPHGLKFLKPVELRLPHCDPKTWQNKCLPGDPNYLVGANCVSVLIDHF
UniProt O75663: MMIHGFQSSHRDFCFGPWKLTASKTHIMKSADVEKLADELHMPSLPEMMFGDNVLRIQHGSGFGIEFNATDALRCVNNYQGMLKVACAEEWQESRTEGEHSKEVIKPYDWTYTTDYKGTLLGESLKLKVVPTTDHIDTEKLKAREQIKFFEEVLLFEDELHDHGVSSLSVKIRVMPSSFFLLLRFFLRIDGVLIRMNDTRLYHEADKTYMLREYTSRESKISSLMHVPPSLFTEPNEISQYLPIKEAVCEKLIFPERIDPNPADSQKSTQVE
UniProt O43493: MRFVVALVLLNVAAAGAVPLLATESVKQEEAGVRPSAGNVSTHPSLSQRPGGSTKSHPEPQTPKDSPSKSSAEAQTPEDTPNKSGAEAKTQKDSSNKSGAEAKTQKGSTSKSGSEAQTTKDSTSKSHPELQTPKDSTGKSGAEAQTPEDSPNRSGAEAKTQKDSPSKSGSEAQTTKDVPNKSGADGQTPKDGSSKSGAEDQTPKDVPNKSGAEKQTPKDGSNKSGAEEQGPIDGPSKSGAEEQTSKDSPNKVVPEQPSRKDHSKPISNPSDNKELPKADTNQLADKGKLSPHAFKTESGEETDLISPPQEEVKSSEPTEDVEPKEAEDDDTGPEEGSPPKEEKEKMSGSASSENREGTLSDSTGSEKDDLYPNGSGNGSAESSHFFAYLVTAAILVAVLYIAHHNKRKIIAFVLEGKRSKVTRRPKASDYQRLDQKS
UniProt Q14186: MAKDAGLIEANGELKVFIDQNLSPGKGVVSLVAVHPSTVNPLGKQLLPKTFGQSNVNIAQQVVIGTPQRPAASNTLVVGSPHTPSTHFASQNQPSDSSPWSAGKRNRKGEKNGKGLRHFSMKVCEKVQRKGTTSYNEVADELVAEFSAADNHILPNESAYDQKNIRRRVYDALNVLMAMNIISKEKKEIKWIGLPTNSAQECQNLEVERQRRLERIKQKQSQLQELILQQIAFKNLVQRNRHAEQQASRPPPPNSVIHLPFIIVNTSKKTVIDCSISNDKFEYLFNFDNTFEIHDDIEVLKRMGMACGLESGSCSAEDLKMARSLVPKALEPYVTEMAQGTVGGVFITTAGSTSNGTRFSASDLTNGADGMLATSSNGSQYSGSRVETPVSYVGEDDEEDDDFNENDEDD
UniProt P21980: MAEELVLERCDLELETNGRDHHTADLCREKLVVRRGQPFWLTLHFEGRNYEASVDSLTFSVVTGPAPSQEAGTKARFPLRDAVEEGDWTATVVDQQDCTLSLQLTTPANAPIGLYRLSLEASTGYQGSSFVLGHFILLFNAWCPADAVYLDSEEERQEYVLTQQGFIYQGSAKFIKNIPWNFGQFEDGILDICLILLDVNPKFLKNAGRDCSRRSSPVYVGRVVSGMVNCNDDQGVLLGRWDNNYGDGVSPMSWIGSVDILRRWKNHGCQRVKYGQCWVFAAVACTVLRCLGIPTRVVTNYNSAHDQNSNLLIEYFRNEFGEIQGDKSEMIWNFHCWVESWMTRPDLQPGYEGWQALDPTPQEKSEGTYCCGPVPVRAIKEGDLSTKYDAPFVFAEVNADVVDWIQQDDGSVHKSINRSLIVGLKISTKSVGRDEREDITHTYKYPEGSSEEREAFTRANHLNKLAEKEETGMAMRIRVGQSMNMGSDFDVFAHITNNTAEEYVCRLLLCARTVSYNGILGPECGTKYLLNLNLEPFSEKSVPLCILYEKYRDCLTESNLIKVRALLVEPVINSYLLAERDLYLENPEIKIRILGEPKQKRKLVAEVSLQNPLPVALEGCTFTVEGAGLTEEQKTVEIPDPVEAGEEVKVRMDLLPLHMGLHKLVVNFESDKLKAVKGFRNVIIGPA
UniProt Q96RS0: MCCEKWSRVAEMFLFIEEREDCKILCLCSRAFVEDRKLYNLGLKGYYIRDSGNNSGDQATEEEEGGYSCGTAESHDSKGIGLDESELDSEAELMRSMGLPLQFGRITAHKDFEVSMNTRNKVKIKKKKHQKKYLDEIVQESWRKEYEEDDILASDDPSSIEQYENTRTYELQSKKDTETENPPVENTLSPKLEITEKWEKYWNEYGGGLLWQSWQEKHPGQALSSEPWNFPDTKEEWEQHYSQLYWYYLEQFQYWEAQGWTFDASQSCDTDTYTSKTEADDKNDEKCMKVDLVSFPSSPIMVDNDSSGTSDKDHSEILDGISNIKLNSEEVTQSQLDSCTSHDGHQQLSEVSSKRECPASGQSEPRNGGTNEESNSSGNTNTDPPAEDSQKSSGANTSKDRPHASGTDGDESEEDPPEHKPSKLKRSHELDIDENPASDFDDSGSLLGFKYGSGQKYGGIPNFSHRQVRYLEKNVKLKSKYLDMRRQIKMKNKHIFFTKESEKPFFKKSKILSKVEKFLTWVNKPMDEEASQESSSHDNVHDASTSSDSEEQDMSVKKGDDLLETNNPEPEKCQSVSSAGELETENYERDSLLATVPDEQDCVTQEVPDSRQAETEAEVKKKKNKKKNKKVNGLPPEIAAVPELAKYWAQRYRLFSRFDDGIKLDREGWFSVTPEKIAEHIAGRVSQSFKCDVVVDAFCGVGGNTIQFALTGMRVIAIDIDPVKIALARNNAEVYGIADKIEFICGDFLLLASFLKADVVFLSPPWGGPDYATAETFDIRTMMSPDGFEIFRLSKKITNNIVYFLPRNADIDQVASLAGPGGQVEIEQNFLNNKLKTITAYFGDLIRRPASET
UniProt Q96CP7: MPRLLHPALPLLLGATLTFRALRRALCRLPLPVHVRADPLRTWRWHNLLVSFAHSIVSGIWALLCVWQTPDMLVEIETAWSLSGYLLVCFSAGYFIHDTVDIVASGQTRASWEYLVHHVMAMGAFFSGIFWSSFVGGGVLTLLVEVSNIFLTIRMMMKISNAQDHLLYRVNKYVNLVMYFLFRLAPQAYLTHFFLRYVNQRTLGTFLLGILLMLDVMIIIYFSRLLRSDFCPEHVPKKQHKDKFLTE

How the values were obtained:
Assay in all cases: log2 fold change, soluble protein after heating vs DMSO (PISA); higher = thermal stabilisation; K562 cells, 10 uM, 30 min; active = over 0.2 and 3.5 SD of the protein, either way, in both replicates (recomputed)
[1] = compound: CC1=C(C=C(C=C1)NC(=O)C2=CC(=CC=C2)C(C)(C)C#N)NC3=CC4=C(C=C3)N=CN(C4=O)C
Procedure, shortened: (§1)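 K562 cells at 2×10^6 cells/mL were given 10 μM compound for 30 min. Aliquots then went through 3 min of heating across 48°C-58°C, were pooled, and were extracted in PBS with 0.5% NP-40 at 4°C, and the supernatant after 21,000xg for 90 min was quantified by TMTpro 16plex LC-MS/MS with channel sums equalised. Thermal stability relative to control samples, from duplicates, is given as log2 fold change.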

[2] = compound: CC1=C(C=C(C=C1)NC(=O)C2=CC(=CC=C2)N(C)C)NC(=O)C3=CC=C(C=C3)O
Procedure, shortened: as §1

[3] = compound: CC1=CC=C(C=C1)SC2=C3C=C(SC3=CN=C2)C(=O)N
Procedure, shortened: as §1

[4] = compound: CC1=NC(=CC=C1)C2=C(N=C(N2)C(C)(C)C)C3=CC4=NC=CN=C4C=C3
Procedure, shortened: as §1

Nexturastat A = compound: CCCCN(Cc1ccc(C(=O)NO)cc1)C(=O)Nc1ccccc1 [Nexturastat A]
Procedure, shortened: as §1

vemurafenib = compound: CCCS(=O)(=O)Nc1ccc(F)c(C(=O)c2c[nH]c3ncc(-c4ccc(Cl)cc4)cc23)c1F [vemurafenib]
Procedure, shortened: as §1

[5] = compound: CCCS(=O)(=O)Nc1ccc(F)c(C(=O)c2c[nH]c3ncc(Cl)cc23)c1F
Procedure, shortened: as §1

[6] = compound: CCCc1cc(C)[nH]c(=O)c1CNC(=O)c1cc(-c2ccnc(N3CCN(C)CC3)c2)cc2c1cnn2C(C)C
Procedure, shortened: as §1

givinostat = compound: CCN(CC)Cc1ccc2cc(COC(=O)Nc3ccc(C(=O)NO)cc3)ccc2c1 [givinostat]
Procedure, shortened: as §1

barasertib = compound: CCN(CCCOc1ccc2c(Nc3cc(CC(=O)Nc4cccc(F)c4)[nH]n3)ncnc2c1)CCOP(=O)(O)O [barasertib]
Procedure, shortened: as §1

Measured: log2 fold change

TBPL1 (UniProt P62380)
inactive: [1] 0.043 | [2] -0.037 | [3] 0.113 | [4] 0.032 | Nexturastat A -0.124 | vemurafenib 0.101 | [5] 0.101 | [6] 0.005 | givinostat -0.04 | barasertib 0.067

THRAP3 (UniProt Q9Y2W1)
inactive: [1] -0.008 | [2] 0.004 | [3] -0.056 | [4] -0.035 | Nexturastat A 0.109 | vemurafenib 0.063 | [5] -0.01 | [6] 0.197 | givinostat 0.093 | barasertib -0.099

TCERG1 (UniProt O14776)
inactive: [1] 0.061 | [2] -0.147 | [3] 0.08 | [4] 0.077 | Nexturastat A -0.144 | vemurafenib 0.118 | [5] 0.135 | [6] -0.006 | givinostat 0.146 | barasertib 0.107

TLCD4 (UniProt Q96MV1)
inactive: [1] 0.037 | [2] 0.012 | [3] -0.018 | [4] 0.11 | Nexturastat A -0.143 | vemurafenib -0.005 | [5] 0.034 | [6] -0.026 | givinostat -0.021 | barasertib -0.029

THOC5 (UniProt Q13769)
inactive: [1] -0.045 | [2] -0.011 | [3] 0 | [4] -0.026 | Nexturastat A 0.046 | vemurafenib -0.011 | [5] -0.029 | [6] -0.022 | givinostat -0.012 | barasertib 0.004

TCEA1 (UniProt P23193)
inactive: [1] 0.005 | [2] -0.003 | [3] -0.006 | [4] 0.038 | Nexturastat A -0.015 | vemurafenib 0.014 | [5] -0.026 | [6] 0.009 | givinostat -0.06 | barasertib 0.051

TCP1 (UniProt P17987)
inactive: [1] 0.013 | [2] 0.003 | [3] 0.021 | [4] 0.019 | Nexturastat A -0.062 | vemurafenib -0.007 | [5] -0.002 | [6] -0.001 | givinostat -0.023 | barasertib -0.019

TFG (UniProt Q92734)
inactive: [1] 0 | [2] -0.026 | [3] 0.012 | [4] 0.006 | Nexturastat A -0.011 | vemurafenib 0.004 | [5] 0.015 | [6] -0.026 | givinostat -0.002 | barasertib -0.01

TBC1D9B (UniProt Q66K14)
active: Nexturastat A 0.361
inactive: [1] -0.028 | [2] 0.116 | [3] 0.05 | [4] -0.032 | vemurafenib 0.095 | [5] 0.048 | [6] -0.189 | givinostat 0.002 | barasertib 0.04

2 neighbouring records already listed, quoted:
TCP1 (UniProt P17987)
inactive: [1] 0.013 | [2] 0.003 | [3] 0.021 | [4] 0.019 | Nexturastat A -0.062 | vemurafenib -0.007 | [5] -0.002 | [6] -0.001 | givinostat -0.023 | barasertib -0.019

TFG (UniProt Q92734)
inactive: [1] 0 | [2] -0.026 | [3] 0.012 | [4] 0.006 | Nexturastat A -0.011 | vemurafenib 0.004 | [5] 0.015 | [6] -0.026 | givinostat -0.002 | barasertib -0.01

(cont.)

TBC1D15 isoform 3 (UniProt Q8TC07)
inactive: [1] 0.076 | [2] -0.028 | [3] -0.003 | [4] -0.019 | Nexturastat A 0.002 | vemurafenib 0.049 | [5] 0.12 | [6] -0.015 | givinostat 0.046 | barasertib 0.068

TDP2 isoform 2 (UniProt O95551)
inactive: [1] -0.007 | [2] 0.052 | [3] -0.025 | [4] -0.007 | Nexturastat A 0.005 | vemurafenib 0.043 | [5] 0.038 | [6] -0.04 | givinostat -0.007 | barasertib 0.005

TBL2 (UniProt Q9Y4P3)
inactive: [1] 0.024 | [2] -0.023 | [3] -0.04 | [4] 0 | Nexturastat A 0.239 | vemurafenib -0.008 | [5] -0.003 | [6] 0.097 | givinostat 0.008 | barasertib -0.012

TIMM44 (UniProt O43615)
inactive: [1] 0.048 | [2] -0.028 | [3] 0.091 | [4] 0.074 | Nexturastat A -0.052 | vemurafenib -0.002 | [5] 0.12 | [6] -0.096 | givinostat -0.013 | barasertib 0.055

TJP1 (UniProt Q07157)
inactive: [1] 0.03 | [2] -0.039 | [3] 0.011 | [4] -0.012 | Nexturastat A -0.005 | vemurafenib 0.041 | [5] 0.065 | [6] -0.021 | givinostat 0.102 | barasertib 0.033

TJP2 isoform 7 (UniProt Q9UDY2)
inactive: [1] -0.017 | [2] -0.006 | [3] 0.007 | [4] -0.014 | Nexturastat A 0.048 | vemurafenib 0.09 | [5] 0.101 | [6] -0.194 | givinostat 0.071 | barasertib 0.102

TCAF1 (UniProt Q9Y4C2)
inactive: [1] 0.001 | [2] -0.005 | [3] -0.044 | [4] -0.007 | Nexturastat A 0.116 | vemurafenib 0.023 | [5] -0.015 | [6] 0.043 | givinostat 0.042 | barasertib 0.017

TBRG4 (UniProt Q969Z0)
inactive: [1] 0.08 | [2] -0.006 | [3] 0.073 | [4] 0.151 | Nexturastat A -0.072 | vemurafenib 0.05 | [5] 0.185 | [6] -0.059 | givinostat 0.099 | barasertib 0.125

TIPRL (UniProt O75663)
inactive: [1] 0.011 | [2] -0.017 | [3] 0.007 | [4] 0.013 | Nexturastat A -0.05 | vemurafenib 0.022 | [5] 0.046 | [6] 0.02 | givinostat 0.032 | barasertib -0.007

TGOLN2 isoform 7 (UniProt O43493)
inactive: [1] 0.005 | [2] -0.003 | [3] -0.003 | [4] -0.005 | Nexturastat A -0.071 | vemurafenib -0.082 | [5] -0.073 | [6] -0.028 | givinostat -0.026 | barasertib -0.024

TCF12 isoform 3 (UniProt Q99081)
inactive: [1] -0.01 | [2] -0.02 | [3] 0.055 | [4] 0.069 | Nexturastat A -0.011 | vemurafenib 0.048 | [5] 0.049 | [6] -0.032 | givinostat 0.036 | barasertib 0.059

TBL1XR1 (UniProt Q9BZK7)
inactive: [1] 0.003 | [2] -0.001 | [3] 0.006 | [4] 0.016 | Nexturastat A -0.16 | vemurafenib -0.018 | [5] 0.035 | [6] -0.002 | givinostat -0.048 | barasertib -0.01

TFDP1 (UniProt Q14186)
inactive: [1] 0.045 | [2] 0.056 | [3] 0.106 | [4] 0.015 | Nexturastat A 0.114 | vemurafenib 0.029 | [5] 0.023 | [6] -0.128 | givinostat 0.009 | barasertib 0.021

TLE3 isoform 4 (UniProt Q04726)
inactive: [1] -0.023 | [2] -0.007 | [3] 0.016 | [4] 0.008 | Nexturastat A 0.012 | vemurafenib -0.018 | [5] 0.028 | [6] 0.035 | givinostat -0.008 | barasertib 0.004

TGM2 (UniProt P21980)
inactive: [1] -0.008 | [2] -0.007 | [3] 0.007 | [4] 0.025 | Nexturastat A -0.063 | vemurafenib -0.009 | [5] 0.006 | [6] -0.022 | givinostat -0.021 | barasertib 0.015

TBL1X (UniProt O60907)
inactive: [1] -0.028 | [2] 0.006 | [3] 0.032 | [4] -0.008 | Nexturastat A -0.128 | vemurafenib -0.026 | [5] 0.003 | [6] -0.038 | givinostat -0.096 | barasertib -0.014

TFRC (UniProt P02786)
inactive: [1] -0.008 | [2] 0.023 | [3] 0.02 | [4] 0.026 | Nexturastat A -0.067 | vemurafenib -0.002 | [5] -0.007 | [6] -0.026 | givinostat 0.004 | barasertib -0.015

TGS1 (UniProt Q96RS0)
inactive: [1] 0.018 | [2] 0.019 | [3] -0.026 | [4] -0.17 | Nexturastat A 0.035 | vemurafenib 0.16 | [5] -0.001 | [6] 0.255 | givinostat 0.049 | barasertib 0.12

TLCD1 (UniProt Q96CP7)
inactive: [1] 0.05 | [2] 0.081 | [3] 0.015 | [4] 0.012 | Nexturastat A 0.161 | vemurafenib -0.048 | [5] 0.072 | [6] -0.079 | givinostat 0.072 | barasertib 0.063

TDRKH (UniProt Q9Y2W6)
inactive: [1] -0.011 | [2] -0.088 | [3] -0.036 | [4] -0.007 | Nexturastat A 0.071 | vemurafenib 0.042 | [5] -0.026 | [6] 0.054 | givinostat 0.091 | barasertib 0.044
